Data taken from publication PMC4440769.
Read-outs that look alike come from different tables or passages of the source. No constants are given. Whether binding was seen depends on the method and setting. Binding seen in cells or lysates may run through a third protein. Here binding means that the protein was enriched with, or labelled near, the bait; the list need not be complete. Tags and fused reporters may be left off the sequences shown.

The chains behind the UniProt entries cited, without tags or fusion partners.
UniProt Q96EP0: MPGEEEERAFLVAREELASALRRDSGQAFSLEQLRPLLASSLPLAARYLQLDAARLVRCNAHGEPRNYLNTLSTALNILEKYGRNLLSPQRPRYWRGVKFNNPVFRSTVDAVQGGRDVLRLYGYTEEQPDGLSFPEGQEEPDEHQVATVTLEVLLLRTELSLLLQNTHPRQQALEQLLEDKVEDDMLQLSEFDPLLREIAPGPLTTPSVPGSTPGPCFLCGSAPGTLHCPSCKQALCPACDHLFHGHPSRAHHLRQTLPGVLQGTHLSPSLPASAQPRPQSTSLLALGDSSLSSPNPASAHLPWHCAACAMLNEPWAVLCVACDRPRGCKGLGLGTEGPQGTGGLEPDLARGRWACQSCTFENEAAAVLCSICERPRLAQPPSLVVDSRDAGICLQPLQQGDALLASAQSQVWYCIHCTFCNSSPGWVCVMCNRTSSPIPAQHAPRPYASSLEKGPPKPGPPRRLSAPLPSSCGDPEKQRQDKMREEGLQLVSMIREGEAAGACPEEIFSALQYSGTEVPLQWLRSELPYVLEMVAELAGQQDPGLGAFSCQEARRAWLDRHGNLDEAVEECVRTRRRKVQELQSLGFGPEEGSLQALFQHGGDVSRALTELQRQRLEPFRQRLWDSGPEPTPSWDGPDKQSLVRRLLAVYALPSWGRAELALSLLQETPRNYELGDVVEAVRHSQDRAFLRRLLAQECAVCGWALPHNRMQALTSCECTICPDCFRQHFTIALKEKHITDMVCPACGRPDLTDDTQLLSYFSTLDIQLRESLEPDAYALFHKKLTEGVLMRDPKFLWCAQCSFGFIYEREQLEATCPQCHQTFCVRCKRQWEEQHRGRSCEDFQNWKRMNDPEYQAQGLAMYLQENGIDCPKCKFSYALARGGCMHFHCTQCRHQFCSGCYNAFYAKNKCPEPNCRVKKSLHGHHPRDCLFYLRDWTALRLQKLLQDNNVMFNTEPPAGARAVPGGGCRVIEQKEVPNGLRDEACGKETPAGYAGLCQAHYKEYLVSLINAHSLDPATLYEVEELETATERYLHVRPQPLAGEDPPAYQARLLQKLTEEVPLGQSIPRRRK
UniProt Q13114: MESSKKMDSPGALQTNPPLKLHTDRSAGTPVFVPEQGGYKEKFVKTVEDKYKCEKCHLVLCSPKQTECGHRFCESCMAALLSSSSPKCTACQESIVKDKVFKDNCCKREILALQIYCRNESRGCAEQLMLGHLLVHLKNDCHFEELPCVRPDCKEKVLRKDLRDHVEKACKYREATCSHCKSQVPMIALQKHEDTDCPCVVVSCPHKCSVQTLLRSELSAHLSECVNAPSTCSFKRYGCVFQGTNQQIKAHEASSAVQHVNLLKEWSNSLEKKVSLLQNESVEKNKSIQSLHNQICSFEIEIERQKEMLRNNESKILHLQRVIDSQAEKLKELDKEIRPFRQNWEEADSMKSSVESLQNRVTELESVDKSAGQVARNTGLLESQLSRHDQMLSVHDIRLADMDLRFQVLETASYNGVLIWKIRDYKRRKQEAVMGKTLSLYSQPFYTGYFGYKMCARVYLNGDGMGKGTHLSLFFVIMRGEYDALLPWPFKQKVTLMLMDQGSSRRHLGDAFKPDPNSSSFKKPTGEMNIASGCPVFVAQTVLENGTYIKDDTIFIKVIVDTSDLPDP
UniProt Q9UHD2: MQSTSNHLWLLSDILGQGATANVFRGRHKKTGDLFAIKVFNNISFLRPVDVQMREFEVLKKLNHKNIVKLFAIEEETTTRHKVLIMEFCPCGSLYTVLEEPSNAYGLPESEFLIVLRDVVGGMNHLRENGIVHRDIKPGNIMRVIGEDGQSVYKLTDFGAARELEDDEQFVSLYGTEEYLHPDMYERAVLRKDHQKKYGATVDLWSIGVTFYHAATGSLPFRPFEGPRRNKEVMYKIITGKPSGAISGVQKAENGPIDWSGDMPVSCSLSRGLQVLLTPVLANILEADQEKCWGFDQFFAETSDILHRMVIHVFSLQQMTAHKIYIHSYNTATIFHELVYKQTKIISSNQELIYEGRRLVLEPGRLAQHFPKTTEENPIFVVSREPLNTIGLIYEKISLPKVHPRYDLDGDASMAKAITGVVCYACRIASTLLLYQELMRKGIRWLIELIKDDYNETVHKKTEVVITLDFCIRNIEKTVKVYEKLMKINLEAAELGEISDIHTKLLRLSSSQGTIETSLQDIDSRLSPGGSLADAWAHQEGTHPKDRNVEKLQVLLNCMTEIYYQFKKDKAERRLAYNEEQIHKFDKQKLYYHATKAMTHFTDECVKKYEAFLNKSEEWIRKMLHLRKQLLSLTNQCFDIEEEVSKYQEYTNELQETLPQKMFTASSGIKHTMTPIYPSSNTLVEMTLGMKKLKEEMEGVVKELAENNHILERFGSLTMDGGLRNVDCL
UniProt Q13489: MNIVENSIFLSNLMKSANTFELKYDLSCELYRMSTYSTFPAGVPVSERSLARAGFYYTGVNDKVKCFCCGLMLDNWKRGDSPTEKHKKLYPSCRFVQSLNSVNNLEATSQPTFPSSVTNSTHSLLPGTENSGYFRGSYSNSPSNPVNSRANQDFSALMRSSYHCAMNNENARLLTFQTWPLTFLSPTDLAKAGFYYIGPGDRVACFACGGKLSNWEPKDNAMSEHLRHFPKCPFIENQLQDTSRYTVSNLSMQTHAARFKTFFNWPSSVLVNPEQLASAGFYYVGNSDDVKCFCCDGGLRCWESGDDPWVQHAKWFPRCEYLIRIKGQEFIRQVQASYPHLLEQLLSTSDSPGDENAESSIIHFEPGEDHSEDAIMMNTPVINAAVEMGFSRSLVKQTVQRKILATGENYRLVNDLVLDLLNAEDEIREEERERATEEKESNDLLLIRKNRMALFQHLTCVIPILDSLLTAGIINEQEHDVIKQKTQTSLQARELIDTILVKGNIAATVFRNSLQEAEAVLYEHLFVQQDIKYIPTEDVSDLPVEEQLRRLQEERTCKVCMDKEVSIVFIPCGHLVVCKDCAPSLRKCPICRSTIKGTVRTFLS

T1: FLAG-TRAF1 (UniProt Q13077)
T1 sequence: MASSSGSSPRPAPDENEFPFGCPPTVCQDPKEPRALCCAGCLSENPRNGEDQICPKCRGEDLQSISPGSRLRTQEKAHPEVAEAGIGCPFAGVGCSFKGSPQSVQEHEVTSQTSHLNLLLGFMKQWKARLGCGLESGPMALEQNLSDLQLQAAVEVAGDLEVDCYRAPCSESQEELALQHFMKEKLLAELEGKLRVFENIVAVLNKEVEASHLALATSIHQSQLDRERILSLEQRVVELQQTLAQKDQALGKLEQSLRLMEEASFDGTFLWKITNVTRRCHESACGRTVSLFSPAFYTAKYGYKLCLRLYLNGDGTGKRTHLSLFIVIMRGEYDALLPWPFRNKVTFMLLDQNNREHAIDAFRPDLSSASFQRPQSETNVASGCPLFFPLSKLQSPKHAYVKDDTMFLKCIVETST


How the values were obtained:
FLAG-TRAF1 [1] = molecular target: T1, FLAG-TRAF1; experiment: affinity purification with mass spectrometry
FLAG-TRAF1 [2] = molecular target: T1, FLAG-TRAF1; experiment: affinity purification with mass spectrometry; remark: listed apart in the source

Row | binding (FLAG-TRAF1 [1]) | binding (FLAG-TRAF1 [2]) | Molecule
1 | binds | – | HOIP (endogenous, 293) (from UniProt Q96EP0 1-1072)
2 | binds | – | TRAF3 (endogenous, 293) (from UniProt Q13114 1-568)
3 | – | binds | TANK (endogenous, 293) (protein, UniProt Q92844 1-425) MDKNIGEQLNKAYEAFRQACMDRDSAVKELQQKTENYEQRIREQQEQLSLQQTIIDKLKSQLLLVNSTQDNNYGCVPLLEDSETRKNNLTLDQPQDKVISGIAREKLPKVRRQEVSSPRKETSARSLGSPLLHERGNIEKTFWDLKEEFHKICMLAKAQKDHLSKLNIPDTATETQCSVPIQCTDKTDKQEALFKPQAKDDINRGAPSITSVTPRGLCRDEEDTSFESLSKFNVKFPPMDNDSTFLHSTPERPGILSPATSEAVCQEKFNMEFRDNPGNFVKTEETLFEIQGIDPIASAIQNLKTTDKTKPSNLVNTCIRTTLDRAACLPPGDHNALYVNSFPLLDPSDAPFPSLDSPGKAIRGPQQPIWKPFPNQDSDSVVLSGTDSELHIPRVCEFCQAVFPPSITSRGDFLRHLNSHFNGET

More lines, now with the values behind:

Row | Molecule | binding (FLAG-TRAF1 [1]) | binding (FLAG-TRAF1 [2])
4 | HOIL-1L (endogenous, 293) (from UniProt Q9BYM8-1 1-510) | binds | –
5 | SQSTM1/P62 (endogenous, 293) (from UniProt Q13501 1-440) | binds | –
6 | TBK1 (endogenous, 293) (from UniProt Q9UHD2 1-729) | binds | –
7 | cIAP2 (endogenous, 293) (from UniProt Q13489 1-604) | binds | –
